# In PubChem BioAssay AID624297 (National Center for Advancing Translational Sciences (NCATS), 2012):
# In all, about 340,000 compounds went through this assay and about 6,200 (1.8%) were called active. Inconclusive results, whose numbers are uncertain, are shown with a selection of clear calls. Calls follow the shape of the dose curve; as a rule, active = well fitted activation curve with a large enough effect; inconclusive = small, poorly fitted or top-dose-only effect; inactive = no such curve, though single readings can be large or run the other way. Where the call is inconclusive, the potency comes from a doubtful curve fit.
# Experiment: A quantitative high throughput screen for small molecules that induce DNA re-replication in SW480 colon adenocarcinoma cells. Also: nearly all actives have a fitted effect of over 55% in size.
# Conditions: Hoechst DNA content imaging, 48 h; series mostly up to 46.1 µM
# Outline: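 Image-based DNA-content assay: after two days of treatment, nuclei were labelled with the DNA dye Hoechst and imaged, and hits were compounds raising the count of nuclei showing high fluorescence intensity.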
# Potency is read from the fitted curve at half-maximal effect.
row,SMILES,Potency
1,COc1cc(C2Oc3ccccc3C=C2[N+](=O)[O-])cc(OC)c1OC (configuration not stated),"inconclusive: 7.31 µM [activator, partial curve, poor fit]"
2,COc1cc(OC)c(OC)cc1/C=C1\CCC/C(=C\c2cc(OC)c(OC)cc2OC)C1=O,"inconclusive: 7.08 µM [activator, partial curve, poor fit]"
3,O=C(NCc1cccc(Cl)c1)C1=CC=CN2CCS(=O)(=O)N=C12,"inconclusive: 23.1 µM [activator, single point]"
4,CCOc1ccccc1NC(=O)c1ccc(Cl)c(NC(=O)CC(c2ccccc2)c2ccccc2)c1,"inconclusive: 20.6 µM [activator, partial curve, poor fit]"
5,COC(=O)C1=C(C)N(C)C(=O)/C1=C\c1ccco1,inactive
6,Cn1c(SCc2ccon2)nc2ccccc2c1=O,active: 14.6 µM
7,c1ccc(COc2ccc(OCCCN3CCCCC3)cc2)cc1,"inconclusive: 29.1 µM [activator, single point]"
8,COc1ccc(CN2C(=O)C(O)(CC(=O)c3ccc4c(c3)OCO4)c3ccccc32)cc1OC (configuration not stated),"inconclusive: 29.1 µM [activator, single point]"
9,CCOC(=O)c1cccc(NC(=O)/C=C/c2cccc([N+](=O)[O-])c2)c1,inactive
10,CN(CC1CCOCC1)C(=O)CC1C(=O)NCCN1Cc1cccc(F)c1 (configuration not stated),"inconclusive: 0.082 µM [activator, partial curve, poor fit]"
11,Cc1ccc(NS(=O)(=O)c2cc(C(=O)N3CCc4ccccc4C3)ccc2Cl)cc1,"inconclusive: 14.6 µM [activator, single point]"
12,CCC(=O)Nc1nc2ccc(NC(=O)COc3ccccc3)cc2s1,"inconclusive: 29.1 µM [activator, single point]"
13,COc1cc(-c2cc(C(=O)Nc3ccc(S(=O)(=O)Nc4ncccn4)cc3)c3ccccc3n2)cc(OC)c1OC,inactive
14,CC(C)(C)OC(=O)NCCCCCc1cn(CC(=O)NCCCCCCCCCCC(=O)N2CCN(C(=O)OC(C)(C)C)CC2)nn1,"inconclusive: 0.326 µM [activator, full curve, poor fit]"
15,COc1cccc(C(=O)Nc2ccc(N3CCCC3)cc2)c1,"inconclusive: 20.6 µM [activator, single point]"
16,Cc1ccc(C)c(NC(=S)NCCc2ccc(F)cc2)c1,"inconclusive: 16.4 µM [activator, partial curve, poor fit]"
17,Cc1ccsc1C(=O)C1CCCN(Cc2cccn2-c2ccc(Cl)cn2)C1 (configuration not stated),active: 18.4 µM
18,O=C(Nc1ccc(Cl)cc1)N1CCSCC1,"inconclusive: 4.11 µM [activator, full curve, poor fit]"
19,O=C(NCCO)c1cc2c(s1)CCC2,"inconclusive: 1.16 µM [activator, full curve, poor fit]"
20,CCN1CCN(c2cc(C)c3cc(NC(=S)N4CCCCC4)ccc3n2)CC1,"inconclusive: 29.1 µM [activator, single point]"
21,CCC(C)(C#CCN1CCCCC1)OC(C)=O (configuration not stated),inactive
22,CC(C)CCSc1cc(NCCO)c([N+](=O)[O-])c2nonc12,"inconclusive: 29.1 µM [activator, single point]"
23,O=C(Nc1ccc(N2CCN(Cc3ccccc3F)CC2)cc1)c1ccc([N+](=O)[O-])o1,"inconclusive: 1.84 µM [activator, partial curve, poor fit]"

row,SMILES,Potency
1,CCOc1ccccc1NC(=O)CSc1c(C)n[nH]c1C,inactive
2,CC(C)(CN1CCC(Cc2ccccc2)CC1)NS(=O)(=O)c1ccccc1,"inconclusive: 18.4 µM [activator, single point]"
3,CCOC(=O)c1c(NC(=O)C(Sc2ccccc2)c2ccccc2)sc(C(=O)N(C)C)c1C (configuration not stated),"inconclusive: 8.2 µM [activator, partial curve, poor fit]"
4,CCC(=O)NC1=C(Nc2ccc(N)cc2)C(=O)c2ccccc2C1=O,"inconclusive: 29.1 µM [activator, single point]"
5,c1ccc(-c2ccc(OCCN3CCOCC3)cc2)cc1,"inconclusive: 11.6 µM [activator, single point]"
6,NC(=O)c1ccc(NC(=O)COC(=O)CC23CC4CC(CC(Br)(C4)C2)C3)cc1,"inconclusive: 10.3 µM [activator, partial curve]"
7,CCOC(=O)C1=C(C)NC(C)=C(C(=O)OCCNC(=O)c2cccnc2)C1c1cccc([N+](=O)[O-])c1 (configuration not stated),inactive
8,Cc1c(NC(=O)c2cc(-c3ccccc3)nc3ccccc23)c(=O)n(-c2ccccc2)n1C,inactive
9,Cc1ccc(C(=O)N/C(=C\c2cccs2)C(=O)NC2CCCCC2)cc1,inactive
10,O=C(N/N=C/c1cccc([N+](=O)[O-])c1O)c1cccs1,"inconclusive: 20.6 µM [activator, single point]"
11,Cc1ccc(-c2nnc(N3CCN(C(=O)CSc4ncn[nH]4)CC3)c3ccccc23)cc1,"inconclusive: 16.4 µM [activator, single point]"
12,Cc1cc(CNC(=O)COc2cc(F)ccc2[N+](=O)[O-])c2ccccc2n1,"inconclusive: 29.1 µM [activator, single point]"
13,COc1ccc(S(=O)(=O)N2CCN(c3ccccc3)CC2)cc1OC,"inconclusive: 0.366 µM [activator, full curve, poor fit]"
14,CCOC(=O)C1=C(C)NC2=C(C(=O)c3ccccc32)C1c1cccc2ccccc12 (configuration not stated),"inconclusive: 29.1 µM [activator, single point]"
15,COc1ccc(-c2nc3ccc(N4CCCC4)cc3c(=O)[nH]2)cc1OC,active: 11.2 µM
16,O=c1c(-c2ccco2)[n+]([O-])c2ccccc2n1OCc1c(F)cccc1F,"inconclusive: 5.8 µM [activator, partial curve, poor fit]"
17,Nc1nccc(/C=C/c2c(Cl)cccc2Cl)n1,"inconclusive: 18.4 µM [activator, single point]"
18,COc1ccc(C[C@H]2CN3C(=NC[C@@H]3Cc3ccccc3)N2CCNC(=O)CCC2CCCCC2)cc1,"inconclusive: 3.66 µM [activator, single point]"
19,Cn1c(=O)[nH]c(=O)c2c1nc([N+](=O)[O-])n2Cc1ccccc1,inactive
20,Cc1cccnc1NC(=O)Nc1ccc(Cl)cc1,"inconclusive: 1.84 µM [activator, partial curve, poor fit]"
21,Cc1nn(-c2ccccc2)c2c1C1(C(=O)N3c4c(cccc41)C(C)CC3(C)C)C(C#N)=C(N)O2 (configuration not stated),"inconclusive: 29.1 µM [activator, single point]"
22,CC(C)=CCC1C(=O)N(c2ccccc2)N(c2ccccc2)C1=O,"inconclusive: 21.1 µM [activator, partial curve, poor fit]"
23,Cc1ccc2[nH]c3c(=O)n(CC(=O)Nc4ccccc4N4CCN(C)CC4)ncc3c2c1,active: 20.6 µM

# Two of these compounds in another layout.
row	SMILES	Potency
3	CCOC(=O)c1c(NC(=O)C(Sc2ccccc2)c2ccccc2)sc(C(=O)N(C)C)c1C (configuration not stated)	inconclusive: 8.2 µM [activator, partial curve, poor fit]
6	NC(=O)c1ccc(NC(=O)COC(=O)CC23CC4CC(CC(Br)(C4)C2)C3)cc1	inconclusive: 10.3 µM [activator, partial curve]

# Next compounds follow:

row,SMILES,Potency
1,CCOC(=O)CNC(=O)c1ccc(C)cc1,inactive
2,NNC(=O)[C@H](Cc1ccccc1)NC(=O)Nc1ccc2c(c1)OCCO2,inactive
3,CCOC(=O)c1sc(S(C)=O)c2c1CCc1conc1-2 (configuration not stated),"inconclusive: 18.4 µM [activator, single point]"
4,Cc1cccnc1NCc1ccc(O)c2ncccc12,"inconclusive: 29.1 µM [activator, single point]"
5,O=C(N[C@@H](Cc1ccccc1)C(=O)OCc1ccccc1)c1nc[nH]c1C(=O)N1CCNCC1,inactive
6,Cc1ccc2nc(N3C(=O)C(O)=C(C(=O)c4ccco4)C3c3cccs3)sc2c1 (configuration not stated),"inconclusive: 16.4 µM [activator, partial curve, poor fit]"
7,S=C1NC(c2ccccc2)=CC(c2ccccc2)N1 (configuration not stated),inactive
8,CC(C)C(=O)Nc1ccc(C(=O)Nc2ccc(Br)cc2F)cc1,"inconclusive: 13 µM [activator, partial curve]"
9,COc1ccc(NC(=O)c2ccc(-c3ccccc3)cc2)cc1NS(=O)(=O)c1ccc(F)cc1,inactive
10,CS(=O)(=O)c1ccc(Cl)c(NC(=O)CSc2nnc(C3CC3)n2C2CC2)c1,inactive
11,CCOC(=O)c1c(NC(=O)Nc2cccc(Cl)c2)sc(C)c1C,inactive
12,O=S(=O)(Nc1cccc(-n2cnnn2)c1)c1ccc(F)cc1,inactive
13,Cc1ccc(C)c(N(C(=O)Cn2nnc(-c3cccs3)n2)C(C(=O)NC2CC2)c2ccc(C)o2)c1 (configuration not stated),"inconclusive: 14.6 µM [activator, single point]"
14,CCOC(=O)C1Oc2ccccc2C(c2ccc(F)cc2)=C1C(=O)OC (configuration not stated),"inconclusive: 18.4 µM [activator, single point]"
15,O=C1CCCN1CCC1CCN(C2CC(=O)N(Cc3ccc(N4CCCC4=O)cc3)C2=O)CC1 (configuration not stated),inactive
16,CC1CC/C(=C\c2ccc3c(c2)OCO3)C(=O)/C1=C/c1ccc2c(c1)OCO2 (configuration not stated),"inconclusive: 2.06 µM [activator, full curve, poor fit]"
17,O=C(Nc1ccc(-c2cn3ccccc3n2)cc1)c1cccs1,"inconclusive: 29.1 µM [activator, single point]"
18,COc1cccc2c(=O)c(C(=O)NCc3cccs3)c[nH]c12,"inconclusive: 16.4 µM [activator, partial curve, poor fit]"
19,CN1C(=O)/C(=C/c2ccc(OCc3ccc(C(=O)O)cc3)c(Cl)c2)NC1=S,"inconclusive: 29.1 µM [activator, single point]"
20,COc1ccc(OC)c(NC(=O)COC(=O)CC2CCCCC2)c1,inactive
21,COc1cc(NC(=O)C2=C(N3CCOCC3)/C(=C\c3ccc(Br)cc3)CC2)cc(OC)c1OC,inactive

# In a second layout: results already given
row | SMILES | Potency
5 | c1ccc(-c2ccc(OCCN3CCOCC3)cc2)cc1 | inconclusive: 11.6 µM [activator, single point]
6 | NC(=O)c1ccc(NC(=O)COC(=O)CC23CC4CC(CC(Br)(C4)C2)C3)cc1 | inconclusive: 10.3 µM [activator, partial curve]
